The target of this test is MAPK6-GFP (pMAPK6:MAPK6-GFP) (rice (Oryza sativa L. ssp japonica cultivar 9522)) (UniProt Q84UI5). Nature of the test: affinity purification with mass spectrometry; MAPK6-GFP precipitated with anti-GFP beads from extract of 7 d roots (20 mM Tris-HCl pH 7.5, 150 mM NaCl, 1 mM EDTA, 0.5% Triton X-100; 4 °C, 2 h); excised gel bands analysed by MS; WT plants as control.

Sequences of proteins named here, by UniProt entry; tags and fusion partners are left off. A change or cut given only in a name is not applied to a line headed by its entry.
UniProt Q84UI5: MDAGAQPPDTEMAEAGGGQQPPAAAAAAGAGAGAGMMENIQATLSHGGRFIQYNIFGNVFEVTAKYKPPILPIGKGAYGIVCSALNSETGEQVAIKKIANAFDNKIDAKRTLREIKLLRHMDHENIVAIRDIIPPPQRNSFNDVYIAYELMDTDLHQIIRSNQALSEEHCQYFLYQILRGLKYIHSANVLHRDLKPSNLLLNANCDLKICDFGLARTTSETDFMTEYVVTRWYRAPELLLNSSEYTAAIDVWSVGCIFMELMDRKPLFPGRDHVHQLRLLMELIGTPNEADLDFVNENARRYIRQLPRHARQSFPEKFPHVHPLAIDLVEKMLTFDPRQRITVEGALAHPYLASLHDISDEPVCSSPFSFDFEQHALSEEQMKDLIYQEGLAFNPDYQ
UniProt Q6K4Q0: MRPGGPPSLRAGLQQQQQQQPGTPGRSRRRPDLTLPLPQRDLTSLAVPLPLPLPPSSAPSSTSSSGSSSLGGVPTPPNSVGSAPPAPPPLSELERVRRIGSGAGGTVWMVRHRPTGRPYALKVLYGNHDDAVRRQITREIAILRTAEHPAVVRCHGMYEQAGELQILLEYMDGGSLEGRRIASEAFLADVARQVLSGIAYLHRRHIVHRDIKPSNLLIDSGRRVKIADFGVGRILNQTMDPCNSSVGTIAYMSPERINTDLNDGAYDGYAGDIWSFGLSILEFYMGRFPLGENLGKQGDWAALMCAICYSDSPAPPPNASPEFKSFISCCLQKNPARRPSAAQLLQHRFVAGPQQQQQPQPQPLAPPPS
UniProt Q6Z339: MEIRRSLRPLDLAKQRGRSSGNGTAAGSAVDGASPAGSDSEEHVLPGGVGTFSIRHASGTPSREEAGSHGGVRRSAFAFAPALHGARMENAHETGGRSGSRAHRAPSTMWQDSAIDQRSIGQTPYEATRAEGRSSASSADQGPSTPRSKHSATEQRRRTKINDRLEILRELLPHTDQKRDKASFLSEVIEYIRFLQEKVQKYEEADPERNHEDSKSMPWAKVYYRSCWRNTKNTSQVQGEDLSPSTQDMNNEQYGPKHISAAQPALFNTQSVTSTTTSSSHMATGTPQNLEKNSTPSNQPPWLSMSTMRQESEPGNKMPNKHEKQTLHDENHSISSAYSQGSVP

These are yes or no findings as the source states them, for the method shown. Binding seen in cells or lysates may run through a third protein. A yes stands for co-enrichment or nearness to the bait. Other partners may have been found.

This passage reports binding results from publication PMC11477179.

For MKK4 (from UniProt Q6K4Q0), the binding result is given as “binds”.

Regarding “BIM2 (BES1-interacting Myc-like2) (from UniProt Q6Z339)”, the binding result was “binds”.
